Results are given in words; binding and its absence hold for the method and conditions named. In cells and extracts the contact can be indirect. Binding can be weak; no strength is given. Sequences can lack the tags named with a protein.
Target: C-terminally HA-tagged MEC-19 (C. elegans)
Assay: co-IP; Xenopus oocytes 5-6 d after cRNA injection; immunoprecipitation with rabbit polyclonal anti-HA and Protein A/G PLUS-Agarose; immunoblot with anti-Myc (9E10), anti-HA or anti-β-integrin (8C8)

binding: binds
B1: N-terminally Myc-tagged MEC-4(d) (protein, UniProt P24612 1-768)
chain: MSWMQNLKNYQHLRDPSEYMSQVYGDPLAYLQETTKFVTEREYYEDFGYGECFNSTESEVQCELITGEFDPKLLPYDKRLAWHFKEFCYKTSAHGIPMIGEAPNVYYRAVWVVLFLGCMIMLYLNAQSVLDKYNRNEKIVDIQLKFDTAPFPAITLCNLNPYKASLATSVDLVKRTLSAFDGAMGKAGGNKDHEEEREVVTEPPTTPAPTTKPARRRGKRDLSGAFFEPGFARCLCGSQGSSEQEDKDEEKEEELLETTTKKVFNINDADEEWDGMEEYDNEHYENYDVEATTGMNMMEECQSERTKFDEPTGFDDRCICAFDRSTHDAWPCFLNGTWETTECDTCNEHAFCTKDNKTAKGHRSPCICAPSRFCVAYNGKTPPIEIWTYLQGGTPTEDPNFLEAMGFQGMTDEVAIVTKAKENIMFAMATLSMQDRERLSTTKRELVHKCSFNGKACDIEADFLTHIDPAFGSCFTFNHNRTVNLTSIRAGPMYGLRMLVYVNASDYMPTTEATGVRLTIHDKEDFPFPDTFGYSAPTGYVSSFGLRLRKMSRLPAPYGDCVPDGKTSDYIYSNYEYSVEGCYRSCFQQLVLKECRCGDPRFPVPENARHCDAADPIARKCLDARMNDLGGLHGSFRCRCQQPCRQSIYSVTYSPAKWPSLSLQIQLGSCNGTAVECNKHYKENGAMVEVFYEQLNFEMLTESEAYGFVNLLTDFGGQLGLWCGISFLTCCEFVFLFLETAYMSAEHNYSLYKKKKAEKAKKIASGSF
